Measurements published in the supplement of paper PMC10849652.
The list shows a part of the results. Residues, ends and D or L forms follow the SMILES beside them. *: point of attachment. Cbz = O=C(OCc1ccccc1)*

The chains behind the UniProt entries cited, without tags or fusion partners. Where a name states a change or a piece, a line headed by the entry shows the natural chain unless it says otherwise.
UniProt O75381, whole entry, looked up: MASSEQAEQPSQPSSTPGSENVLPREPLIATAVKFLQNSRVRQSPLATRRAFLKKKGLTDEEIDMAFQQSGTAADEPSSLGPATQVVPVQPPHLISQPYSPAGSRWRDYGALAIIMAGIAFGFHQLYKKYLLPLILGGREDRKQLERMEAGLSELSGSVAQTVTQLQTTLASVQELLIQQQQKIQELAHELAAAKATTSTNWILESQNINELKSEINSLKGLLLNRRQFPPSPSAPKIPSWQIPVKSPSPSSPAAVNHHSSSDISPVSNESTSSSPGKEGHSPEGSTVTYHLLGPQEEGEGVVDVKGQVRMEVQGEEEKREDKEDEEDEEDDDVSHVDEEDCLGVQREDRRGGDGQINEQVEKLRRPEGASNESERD
UniProt Q15365, whole entry, looked up: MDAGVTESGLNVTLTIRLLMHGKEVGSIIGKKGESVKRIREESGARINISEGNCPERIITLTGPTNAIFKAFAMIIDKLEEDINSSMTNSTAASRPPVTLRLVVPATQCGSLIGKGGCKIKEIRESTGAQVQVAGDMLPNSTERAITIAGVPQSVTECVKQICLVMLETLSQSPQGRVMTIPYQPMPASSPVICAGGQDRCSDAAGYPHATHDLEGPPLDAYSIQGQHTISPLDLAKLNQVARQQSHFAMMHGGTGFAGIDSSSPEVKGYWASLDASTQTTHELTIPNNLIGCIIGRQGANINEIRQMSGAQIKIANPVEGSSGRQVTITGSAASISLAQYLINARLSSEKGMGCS
UniProt Q8IZL8: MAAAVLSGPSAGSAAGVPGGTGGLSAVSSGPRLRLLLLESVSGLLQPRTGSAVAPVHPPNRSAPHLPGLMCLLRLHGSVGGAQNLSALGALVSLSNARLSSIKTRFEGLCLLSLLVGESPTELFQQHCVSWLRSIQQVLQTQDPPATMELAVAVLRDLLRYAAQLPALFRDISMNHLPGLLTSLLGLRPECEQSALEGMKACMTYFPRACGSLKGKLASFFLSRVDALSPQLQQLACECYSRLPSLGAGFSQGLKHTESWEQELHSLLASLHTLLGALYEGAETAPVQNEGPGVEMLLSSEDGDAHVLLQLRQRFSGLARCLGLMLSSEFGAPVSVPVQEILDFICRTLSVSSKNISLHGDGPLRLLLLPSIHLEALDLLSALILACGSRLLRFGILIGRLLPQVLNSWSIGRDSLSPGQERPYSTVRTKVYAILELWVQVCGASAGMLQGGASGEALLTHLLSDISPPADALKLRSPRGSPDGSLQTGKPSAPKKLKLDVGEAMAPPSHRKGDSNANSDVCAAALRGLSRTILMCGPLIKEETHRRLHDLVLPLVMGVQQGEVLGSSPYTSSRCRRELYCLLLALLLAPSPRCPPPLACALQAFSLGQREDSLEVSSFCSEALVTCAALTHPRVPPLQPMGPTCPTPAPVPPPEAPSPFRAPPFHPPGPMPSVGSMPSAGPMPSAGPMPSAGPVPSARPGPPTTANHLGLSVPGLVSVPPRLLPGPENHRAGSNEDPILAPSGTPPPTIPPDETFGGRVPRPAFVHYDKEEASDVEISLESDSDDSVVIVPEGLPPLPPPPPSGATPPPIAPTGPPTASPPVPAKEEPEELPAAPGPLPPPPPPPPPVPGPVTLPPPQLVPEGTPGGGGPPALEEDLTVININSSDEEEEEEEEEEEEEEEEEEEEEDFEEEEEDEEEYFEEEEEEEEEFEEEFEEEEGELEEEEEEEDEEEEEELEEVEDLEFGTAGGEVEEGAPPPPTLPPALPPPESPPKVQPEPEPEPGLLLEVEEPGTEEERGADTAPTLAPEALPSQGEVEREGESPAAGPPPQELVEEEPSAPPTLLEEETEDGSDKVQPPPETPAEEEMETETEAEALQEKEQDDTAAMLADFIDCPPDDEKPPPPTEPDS
UniProt Q5EBL8: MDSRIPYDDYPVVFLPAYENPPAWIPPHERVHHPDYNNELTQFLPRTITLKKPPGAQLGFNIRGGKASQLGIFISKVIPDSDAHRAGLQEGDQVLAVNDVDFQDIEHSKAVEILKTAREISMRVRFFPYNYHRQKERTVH
UniProt O15530: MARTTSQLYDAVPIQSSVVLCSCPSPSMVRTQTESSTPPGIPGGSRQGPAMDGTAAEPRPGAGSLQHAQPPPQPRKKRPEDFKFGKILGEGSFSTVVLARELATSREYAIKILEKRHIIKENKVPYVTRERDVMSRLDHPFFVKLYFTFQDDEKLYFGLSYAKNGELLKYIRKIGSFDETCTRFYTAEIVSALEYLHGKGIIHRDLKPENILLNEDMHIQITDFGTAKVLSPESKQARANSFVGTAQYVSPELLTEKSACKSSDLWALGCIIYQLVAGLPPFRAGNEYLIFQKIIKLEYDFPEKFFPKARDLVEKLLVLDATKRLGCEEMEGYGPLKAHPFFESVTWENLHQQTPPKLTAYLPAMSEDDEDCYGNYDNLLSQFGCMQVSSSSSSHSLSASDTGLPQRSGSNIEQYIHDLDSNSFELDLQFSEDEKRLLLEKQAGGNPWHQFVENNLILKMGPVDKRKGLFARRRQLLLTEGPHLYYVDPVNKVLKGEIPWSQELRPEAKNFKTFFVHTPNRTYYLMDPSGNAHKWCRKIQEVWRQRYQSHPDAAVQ
UniProt Q5JVF3: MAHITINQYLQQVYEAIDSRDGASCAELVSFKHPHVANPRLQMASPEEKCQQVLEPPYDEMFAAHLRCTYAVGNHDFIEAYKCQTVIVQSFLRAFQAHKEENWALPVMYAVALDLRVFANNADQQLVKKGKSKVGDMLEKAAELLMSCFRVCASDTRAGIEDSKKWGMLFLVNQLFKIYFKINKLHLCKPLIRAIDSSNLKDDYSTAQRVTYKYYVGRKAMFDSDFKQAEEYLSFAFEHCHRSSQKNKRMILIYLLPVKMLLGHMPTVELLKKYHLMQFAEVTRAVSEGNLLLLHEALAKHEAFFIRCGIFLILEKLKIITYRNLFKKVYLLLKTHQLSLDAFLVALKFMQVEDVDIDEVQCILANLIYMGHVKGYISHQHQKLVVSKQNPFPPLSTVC
UniProt P68402: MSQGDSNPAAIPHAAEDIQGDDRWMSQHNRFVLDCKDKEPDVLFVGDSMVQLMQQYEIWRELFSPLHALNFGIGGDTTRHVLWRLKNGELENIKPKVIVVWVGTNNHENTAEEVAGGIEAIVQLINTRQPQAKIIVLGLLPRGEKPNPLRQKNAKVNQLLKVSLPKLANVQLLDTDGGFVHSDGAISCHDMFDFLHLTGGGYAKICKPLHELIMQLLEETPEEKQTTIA
UniProt Q9UKL6: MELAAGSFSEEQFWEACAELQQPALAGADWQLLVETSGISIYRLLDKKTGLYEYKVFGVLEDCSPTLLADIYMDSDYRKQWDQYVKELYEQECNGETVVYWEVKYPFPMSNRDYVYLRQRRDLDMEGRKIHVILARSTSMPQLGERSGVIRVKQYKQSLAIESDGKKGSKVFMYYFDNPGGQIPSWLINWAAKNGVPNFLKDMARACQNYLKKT
UniProt Q9UBV8: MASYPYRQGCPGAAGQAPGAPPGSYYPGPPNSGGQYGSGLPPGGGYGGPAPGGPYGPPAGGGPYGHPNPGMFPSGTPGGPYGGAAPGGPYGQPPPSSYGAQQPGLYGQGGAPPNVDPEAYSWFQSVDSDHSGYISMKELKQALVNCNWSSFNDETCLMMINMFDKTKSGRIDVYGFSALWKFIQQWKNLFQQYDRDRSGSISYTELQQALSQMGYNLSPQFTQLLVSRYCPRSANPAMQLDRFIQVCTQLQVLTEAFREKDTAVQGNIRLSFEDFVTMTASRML
UniProt Q29RF7: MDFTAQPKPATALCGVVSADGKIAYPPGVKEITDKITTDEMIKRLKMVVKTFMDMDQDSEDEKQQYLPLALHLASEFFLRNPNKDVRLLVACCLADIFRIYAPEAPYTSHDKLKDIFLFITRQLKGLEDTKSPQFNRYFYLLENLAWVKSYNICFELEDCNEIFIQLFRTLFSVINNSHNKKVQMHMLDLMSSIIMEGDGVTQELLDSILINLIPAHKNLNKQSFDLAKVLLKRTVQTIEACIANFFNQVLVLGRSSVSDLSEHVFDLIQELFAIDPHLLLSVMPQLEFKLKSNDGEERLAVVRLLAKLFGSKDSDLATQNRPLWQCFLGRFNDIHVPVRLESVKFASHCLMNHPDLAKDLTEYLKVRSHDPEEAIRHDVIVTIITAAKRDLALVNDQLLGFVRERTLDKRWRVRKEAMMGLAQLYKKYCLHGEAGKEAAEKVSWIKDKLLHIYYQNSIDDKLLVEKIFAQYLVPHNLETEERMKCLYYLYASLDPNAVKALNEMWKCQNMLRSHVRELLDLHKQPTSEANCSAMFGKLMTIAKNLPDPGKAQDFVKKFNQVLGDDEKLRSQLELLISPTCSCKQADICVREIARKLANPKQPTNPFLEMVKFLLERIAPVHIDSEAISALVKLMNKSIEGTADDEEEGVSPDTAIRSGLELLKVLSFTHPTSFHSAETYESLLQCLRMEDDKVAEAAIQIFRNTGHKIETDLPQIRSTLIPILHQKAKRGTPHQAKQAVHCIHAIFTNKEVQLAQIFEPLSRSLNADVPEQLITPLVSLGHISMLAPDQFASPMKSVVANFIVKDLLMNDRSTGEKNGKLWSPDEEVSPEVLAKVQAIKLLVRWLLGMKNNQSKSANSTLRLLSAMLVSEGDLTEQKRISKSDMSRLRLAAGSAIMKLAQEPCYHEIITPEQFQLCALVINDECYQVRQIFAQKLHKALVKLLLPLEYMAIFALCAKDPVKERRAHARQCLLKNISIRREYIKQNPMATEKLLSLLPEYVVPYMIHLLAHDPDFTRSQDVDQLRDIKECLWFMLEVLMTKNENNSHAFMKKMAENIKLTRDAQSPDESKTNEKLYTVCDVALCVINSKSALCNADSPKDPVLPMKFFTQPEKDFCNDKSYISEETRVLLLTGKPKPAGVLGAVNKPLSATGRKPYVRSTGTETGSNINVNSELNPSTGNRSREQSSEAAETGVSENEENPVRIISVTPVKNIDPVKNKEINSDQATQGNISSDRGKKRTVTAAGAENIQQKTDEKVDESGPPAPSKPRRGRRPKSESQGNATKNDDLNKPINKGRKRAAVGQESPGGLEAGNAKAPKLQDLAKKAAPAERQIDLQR
UniProt P35227: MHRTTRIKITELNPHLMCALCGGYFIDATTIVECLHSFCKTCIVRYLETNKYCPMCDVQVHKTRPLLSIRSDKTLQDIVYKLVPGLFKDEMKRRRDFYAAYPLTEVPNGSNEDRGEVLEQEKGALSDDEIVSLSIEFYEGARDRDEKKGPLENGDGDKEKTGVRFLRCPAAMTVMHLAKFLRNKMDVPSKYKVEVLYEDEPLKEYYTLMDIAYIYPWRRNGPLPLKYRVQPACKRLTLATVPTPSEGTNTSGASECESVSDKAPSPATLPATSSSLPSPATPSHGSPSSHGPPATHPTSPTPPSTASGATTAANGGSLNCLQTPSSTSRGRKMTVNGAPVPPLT
UniProt Q16822, whole entry, looked up: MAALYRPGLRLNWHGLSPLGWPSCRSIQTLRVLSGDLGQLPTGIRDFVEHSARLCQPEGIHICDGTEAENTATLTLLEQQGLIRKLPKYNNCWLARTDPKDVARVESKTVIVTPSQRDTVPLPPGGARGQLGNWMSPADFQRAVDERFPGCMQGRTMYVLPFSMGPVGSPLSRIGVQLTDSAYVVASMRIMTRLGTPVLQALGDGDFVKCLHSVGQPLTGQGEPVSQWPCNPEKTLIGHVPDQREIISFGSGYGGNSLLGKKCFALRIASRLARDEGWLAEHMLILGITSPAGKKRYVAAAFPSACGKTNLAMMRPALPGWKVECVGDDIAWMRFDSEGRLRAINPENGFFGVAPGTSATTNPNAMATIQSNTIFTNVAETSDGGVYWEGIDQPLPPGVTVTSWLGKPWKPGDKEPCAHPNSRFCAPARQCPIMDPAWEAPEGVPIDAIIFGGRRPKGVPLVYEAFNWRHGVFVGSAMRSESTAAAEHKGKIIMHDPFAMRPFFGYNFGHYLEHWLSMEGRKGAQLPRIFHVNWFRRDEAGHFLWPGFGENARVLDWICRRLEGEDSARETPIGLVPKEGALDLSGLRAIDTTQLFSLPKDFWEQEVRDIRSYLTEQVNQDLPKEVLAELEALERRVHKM
UniProt Q8N165: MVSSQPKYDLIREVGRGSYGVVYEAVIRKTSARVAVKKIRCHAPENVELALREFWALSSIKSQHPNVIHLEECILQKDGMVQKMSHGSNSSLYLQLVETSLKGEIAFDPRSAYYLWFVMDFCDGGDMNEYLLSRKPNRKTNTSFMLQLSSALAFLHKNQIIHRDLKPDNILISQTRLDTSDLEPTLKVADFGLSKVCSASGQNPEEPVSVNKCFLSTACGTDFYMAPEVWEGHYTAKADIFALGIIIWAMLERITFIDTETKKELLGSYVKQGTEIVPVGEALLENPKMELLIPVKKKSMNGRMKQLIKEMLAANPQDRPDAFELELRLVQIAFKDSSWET

Legend:
Assay in all cases: log2 fold change, soluble protein after heating vs DMSO (PISA); higher = thermal stabilisation; K562 cells, 10 uM, 30 min; active = over 0.2 and 3.5 SD of the protein, either way, in both replicates (recomputed)
IRAK-1-4 Inhibitor I = compound: C1COCCN1CCN2C3=CC=CC=C3N=C2NC(=O)C4=CC(=CC=C4)[N+](=O)[O-] [IRAK-1-4 Inhibitor I]
Method in brief: (§1)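 K562 cells (2×10^6 cells/mL) were treated with 10 μM compound for 30 min, and aliquots were heated for 3 min over 48°C-58°C. Pooled aliquots were extracted in PBS with 0.5% NP-40 at 4°C, and the supernatant after 21,000xg for 90 min was measured by TMTpro 16plex LC-MS/MS with channel sums equalised. Reported thermal stability, relative to control samples and from duplicates, is a log2 fold change.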

ibrutinib = compound: C=CC(=O)N1CCC[C@@H](n2nc(-c3ccc(Oc4ccccc4)cc3)c3c(N)ncnc32)C1 [ibrutinib]
Method in brief: as §1

[1] = compound: CC(=O)c1cnc2ccc(-c3cc(Cl)c(O)c(Cl)c3)nc2c1N[C@H]1CC[C@H](CN(C)C)CC1
Method in brief: as §1

ralimetinib = compound: CC(C)(C)Cn1c(N)nc2ccc(-c3[nH]c(C(C)(C)C)nc3-c3ccc(F)cc3)nc21 [ralimetinib]
Method in brief: as §1

[2] = compound: CC(C)(O)CC(=O)NCCn1ccc2ncnc(Nc3ccc(Oc4cccc(C(F)(F)F)c4)c(Cl)c3)c21
Method in brief: as §1

[3] = compound: CC(C)C1=C2N=C(C=C(N2N=C1)NCC3=CC=CC=C3)NCCCCCCN
Method in brief: as §1

[4] = compound: CC(C)C[C@@H](C=O)NC(=O)[C@H](CC(C)C)NC(=O)[C@H](CC(C)C)NC(=O)OCc1ccccc1
Method in brief: as §1

pinometostat = compound: CC(C)N(C[C@H]1O[C@@H](n2cnc3c(N)ncnc32)[C@H](O)[C@@H]1O)[C@H]1C[C@@H](CCc2nc3cc(C(C)(C)C)ccc3[nH]2)C1 [pinometostat]
Method in brief: as §1

[5] = compound: CC1=C(C2=C(C=C1)C(=O)C3=CC=CC=C3N2CCCN)C
Method in brief: as §1

[6] = compound: CC1=C(C=C(C=C1)NC(=O)C2=CC(=CC=C2)C(C)(C)C#N)NC3=CC4=C(C=C3)N=CN(C4=O)C
Method in brief: as §1

[7] = compound: CC1=C(C=C(C=C1)NC(=O)C2=CC(=CC=C2)N(C)C)NC(=O)C3=CC=C(C=C3)O
Method in brief: as §1

[8] = compound: CC1=CC=C(C=C1)SC2=C3C=C(SC3=CN=C2)C(=O)N
Method in brief: as §1

[9] = compound: CC1=NC(=CC=C1)C2=C(N=C(N2)C(C)(C)C)C3=CC4=NC=CN=C4C=C3
Method in brief: as §1

Nexturastat A = compound: CCCCN(Cc1ccc(C(=O)NO)cc1)C(=O)Nc1ccccc1 [Nexturastat A]
Method in brief: as §1

vemurafenib = compound: CCCS(=O)(=O)Nc1ccc(F)c(C(=O)c2c[nH]c3ncc(-c4ccc(Cl)cc4)cc23)c1F [vemurafenib]
Method in brief: as §1

[10] = compound: CCCS(=O)(=O)Nc1ccc(F)c(C(=O)c2c[nH]c3ncc(Cl)cc23)c1F
Method in brief: as §1

[11] = compound: CCCc1cc(C)[nH]c(=O)c1CNC(=O)c1cc(-c2ccnc(N3CCN(C)CC3)c2)cc2c1cnn2C(C)C
Method in brief: as §1

givinostat = compound: CCN(CC)Cc1ccc2cc(COC(=O)Nc3ccc(C(=O)NO)cc3)ccc2c1 [givinostat]
Method in brief: as §1

barasertib = compound: CCN(CCCOc1ccc2c(Nc3cc(CC(=O)Nc4cccc(F)c4)[nH]n3)ncnc2c1)CCOP(=O)(O)O [barasertib]
Method in brief: as §1

[12] = compound: CC1=C(C(CC(=O)N1)C2=CC=C(C=C2)C(F)(F)F)C(=O)NC3=C(C=C4C(=C3)C=NN4)F
Method in brief: as §1

Target | log2 fold change (IRAK-1-4 Inhibitor I) | log2 fold change (ibrutinib) | log2 fold change [1] | log2 fold change (ralimetinib) | log2 fold change [2] | log2 fold change [3] | log2 fold change [4] | log2 fold change (pinometostat) | log2 fold change [5] | log2 fold change [6] | log2 fold change [7] | log2 fold change [8] | log2 fold change [9] | log2 fold change (Nexturastat A) | log2 fold change (vemurafenib) | log2 fold change [10] | log2 fold change [11] | log2 fold change (givinostat) | log2 fold change (barasertib) | log2 fold change [12]
PDS5B (UniProt Q9NTI5) | inactive: -0.184 | inactive: -0.102 | inactive: -0.052 | inactive: -0.01 | inactive: -0.093 | inactive: -0.166 | inactive: 0.124 | inactive: 0.093 | inactive: 0.02 | inactive: -0.088 | inactive: 0.086 | inactive: 0.176 | inactive: 0.109 | inactive: -0.011 | inactive: -0.032 | inactive: 0.32 | inactive: -0.058 | inactive: 0.135 | inactive: 0.047 | –
PEX14 (UniProt O75381) | inactive: -0.043 | inactive: -0.027 | inactive: 0.018 | inactive: -0.015 | inactive: -0.01 | inactive: 0.044 | inactive: -0.044 | inactive: -0.045 | inactive: 0.011 | inactive: 0.056 | inactive: -0.032 | inactive: 0.009 | inactive: 0.07 | inactive: -0.052 | inactive: 0.033 | inactive: 0.006 | inactive: 0.013 | inactive: 0.029 | inactive: -0.009 | inactive: -0.022
PCBP1 (UniProt Q15365) | inactive: 0 | inactive: -0.017 | inactive: -0.005 | inactive: 0.058 | inactive: -0.058 | inactive: -0.118 | inactive: -0.006 | inactive: -0.003 | inactive: 0.039 | inactive: 0.034 | inactive: -0.037 | inactive: 0.112 | inactive: 0.067 | inactive: -0.038 | inactive: 0.022 | inactive: 0.097 | inactive: -0.011 | inactive: 0.013 | inactive: 0.021 | –
PELP1 (UniProt Q8IZL8) | inactive: 0.017 | inactive: -0.017 | inactive: -0.106 | inactive: 0.04 | inactive: -0.031 | inactive: 0.017 | inactive: -0.019 | inactive: 0.008 | active: -2.07 | inactive: -0.048 | inactive: 0.044 | inactive: 0.034 | inactive: -0.02 | inactive: 0.15 | inactive: -0.01 | inactive: -0.038 | inactive: -0.006 | inactive: 0.039 | inactive: -0.085 | –
PDE2A (UniProt O00408) | inactive: 0.083 | inactive: 0.026 | inactive: -0.001 | inactive: 0.12 | inactive: -0.082 | inactive: 0.014 | inactive: -0.009 | inactive: -0.007 | inactive: 0.043 | inactive: -0.041 | inactive: 0.007 | inactive: 0.041 | inactive: -0.019 | inactive: -0.054 | inactive: 0.013 | inactive: 0.036 | inactive: -0.012 | inactive: -0.043 | inactive: 0.011 | –
PDZD11 isoform 2 (UniProt Q5EBL8) | inactive: -0.042 | inactive: 0.046 | – | inactive: 0.014 | inactive: -0.071 | inactive: 0.007 | inactive: 0.053 | inactive: -0.025 | inactive: 0.029 | inactive: -0.032 | inactive: -0.047 | inactive: 0.013 | inactive: 0.042 | inactive: 0.051 | inactive: -0.044 | inactive: 0.029 | inactive: 0.07 | inactive: -0.032 | inactive: 0.081 | inactive: -0.082
PDPK1 (UniProt O15530) | inactive: 0.019 | inactive: -0.043 | active: -0.346 | inactive: -0.067 | inactive: -0.087 | inactive: -0.134 | inactive: 0.015 | inactive: 0.001 | inactive: 0.027 | inactive: -0.026 | inactive: -0.055 | inactive: 0.019 | inactive: -0.007 | inactive: -0.12 | inactive: 0.03 | inactive: 0.003 | inactive: -0.018 | inactive: 0.032 | inactive: 0.035 | –
PCID2 (UniProt Q5JVF3) | inactive: -0.008 | inactive: -0.015 | – | inactive: 0.007 | inactive: 0.063 | active: -0.428 | inactive: -0.02 | inactive: 0.037 | inactive: 0.06 | inactive: 0.024 | inactive: -0.026 | inactive: -0.066 | inactive: 0.033 | inactive: 0.153 | inactive: 0.069 | inactive: 0.202 | inactive: 0.071 | inactive: 0.114 | inactive: -0.016 | –
PCF11 (UniProt O94913) | inactive: 0.002 | inactive: -0.255 | inactive: -0.093 | inactive: -0.104 | – | – | inactive: -0.083 | inactive: -0.058 | – | – | inactive: 0.045 | inactive: 0.019 | inactive: -0.018 | – | inactive: -0.058 | inactive: 0.006 | inactive: -0.3 | – | inactive: -0.168 | –
PAFAH1B2 (UniProt P68402) | inactive: 0.013 | inactive: 0.017 | inactive: -0.016 | inactive: 0.038 | active: -0.436 | inactive: 0.012 | inactive: -0.033 | inactive: 0.016 | inactive: 0.005 | inactive: 0.064 | inactive: 0.005 | inactive: -0.106 | inactive: -0.046 | inactive: -0.157 | inactive: 0.083 | inactive: -0.135 | inactive: -0.355 | inactive: 0.042 | inactive: 0.046 | –
PCTP (UniProt Q9UKL6) | inactive: -0.009 | inactive: -0.018 | inactive: 0.054 | inactive: -0.081 | inactive: -0.091 | active: -0.266 | inactive: -0.012 | inactive: -0.013 | inactive: 0.005 | inactive: -0.007 | inactive: 0.004 | inactive: 0.052 | inactive: 0.039 | inactive: -0.003 | inactive: 0.005 | inactive: 0.066 | inactive: 0.026 | inactive: -0.035 | inactive: 0.013 | –
PAFAH1B1 (UniProt I3L3N5) | inactive: -0.055 | inactive: -0.173 | inactive: 0.052 | – | – | – | – | inactive: 0.024 | – | – | – | inactive: -0.118 | inactive: -0.122 | – | inactive: -0.177 | inactive: -0.22 | inactive: -0.233 | – | inactive: 0.062 | –
PEF1 (UniProt Q9UBV8) | inactive: 0.003 | inactive: -0.002 | inactive: -0.03 | inactive: -0.057 | inactive: -0.092 | inactive: -0.094 | inactive: -0.085 | inactive: -0.041 | inactive: 0.085 | inactive: -0.011 | inactive: -0.075 | inactive: 0.027 | inactive: 0.013 | inactive: 0.032 | inactive: 0.008 | inactive: 0.073 | inactive: -0.045 | inactive: 0.022 | inactive: 0.122 | –
PDS5A (UniProt Q29RF7) | inactive: -0.168 | inactive: -0.041 | inactive: -0.063 | inactive: -0.012 | inactive: -0.344 | inactive: -0.61 | inactive: 0.272 | inactive: 0.045 | inactive: -0.103 | inactive: 0.093 | inactive: -0.109 | inactive: 0.012 | inactive: 0.12 | inactive: 0.057 | inactive: 0.143 | inactive: 0.294 | inactive: 0 | inactive: 0.208 | inactive: 0.275 | –
PCGF2 (UniProt P35227) | inactive: -0.077 | inactive: -0.101 | inactive: -0.164 | inactive: -0.036 | inactive: 0 | inactive: -0.095 | inactive: 0.065 | inactive: -0.075 | inactive: 0.107 | inactive: -0.043 | inactive: -0.058 | inactive: -0.056 | inactive: 0.033 | inactive: -0.01 | inactive: 0 | inactive: -0.033 | inactive: 0.056 | inactive: 0.046 | inactive: 0.113 | –
PCK2 (UniProt Q16822) | inactive: -0.029 | inactive: 0.021 | inactive: -0.013 | inactive: -0.059 | inactive: -0.019 | inactive: 0.063 | inactive: 0.035 | inactive: -0.011 | inactive: 0.053 | inactive: -0.002 | inactive: -0.064 | inactive: -0.008 | inactive: 0.045 | inactive: -0.065 | inactive: -0.006 | inactive: 0.002 | inactive: 0.014 | inactive: -0.13 | inactive: 0.011 | –
PDIK1L (UniProt Q8N165) | inactive: -0.006 | inactive: -0.205 | active: -0.693 | inactive: -0.173 | inactive: 0.032 | inactive: -0.139 | inactive: 0.091 | inactive: -0.012 | inactive: -0.197 | inactive: -0.079 | inactive: 0.031 | inactive: -0.265 | inactive: 0.068 | inactive: -0.077 | inactive: 0.026 | inactive: 0 | inactive: 0.03 | inactive: 0.034 | inactive: 0.055 | –
